Measurements reported in PubChem BioAssay AID743454 (Peter MacCallum Cancer Centre, 2014)

Test: 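Knock-downs lowering viability or raising caspase 3/7 activity in vorinostat-treated resistant cells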 (primary screen)
System: human HCT116-VR colon cancer cells, selected for vorinostat resistance
Reagent: siRNA pool against human genes, 40 nM siRNA pool
Timing: vorinostat for 24 h, read-out about 72 h after transfection
Challenge: vorinostat at 2.5 µM final
Detection: 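Two measures, CellTiter-Fluor viability and luminescent caspase 3/7 activity, each as fold change against same-plate mock wells, mean of duplicates, then screen-wide robust z-score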
Direction: viability robust z-score: higher = more viable cells than screen typical; caspase robust z-score: higher = more caspase 3/7 activity than screen typical
Hit rule: 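a knock-down is a hit when classed RV1 or RV2 for lowered viability, or CA1 or CA2 for caspase activation; those lethal without drug were dropped; hits were retested singly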
The whole screen tested about 18,000 reagents; this is a random part of them. 450 of all reagents (2.5%) count as active. 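Single biological run; no consistent viability z cut-off exists, so the class columns, not z-scores, define the calls.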

Silencing of SEMA4F (ssemaphorin 4F) gave: viability hit class no change; caspase hit class CA1 (caspase activation); viability robust z-score -0.59; caspase robust z-score 6.73; active.
TMEM108 (transmembrane protein 108) showed viability hit class no change; caspase hit class no change; viability robust z-score 0.2; caspase robust z-score -0.86; inactive.
After knock-down of BLTP3B (bridge-like lipid transfer protein family member 3B), the screen gave viability hit class no change; caspase hit class no change; viability robust z-score -0.03; caspase robust z-score 1.08; inactive.
With knock-down of DGKD (diacylglycerol kinase delta), the screen gave viability hit class no change; caspase hit class no change; viability robust z-score 0.2; caspase robust z-score 0.22; inactive.
Depletion of GP2 (glycoprotein 2) came out at: viability hit class no change; caspase hit class no change; viability robust z-score -1.24; caspase robust z-score 0.67; inactive.
After knock-down of ZNF79 (zinc finger protein 79) the results were viability hit class no change; caspase hit class no change; viability robust z-score 0.44; caspase robust z-score -0.37; inactive.
For ZNF622 (zinc finger protein 622), the entry reads viability hit class no change; caspase hit class no change; viability robust z-score 0.62; caspase robust z-score -0.76; inactive.
With knock-down of SON (SON DNA and RNA binding protein), the record shows viability hit class no change; caspase hit class no change; viability robust z-score -3.54; caspase robust z-score 4.22; inactive.
Against ZNF280B (zinc finger protein 280B), the values are viability hit class no change; caspase hit class no change; viability robust z-score -0.43; caspase robust z-score -0.94; inactive.

Sorted by “viability robust z-score” (low to high): 2 of the entries above.
BLTP3B (bridge-like lipid transfer protein family member 3B) — viability hit class: no change; caspase hit class: no change; viability robust z-score: -0.03; caspase robust z-score: 1.08; outcome: inactive
DGKD (diacylglycerol kinase delta) — viability hit class: no change; caspase hit class: no change; viability robust z-score: 0.2; caspase robust z-score: 0.22; outcome: inactive

The listing continues.
With knock-down of TBX15 (T-box transcription factor 15), the record shows viability hit class no change; caspase hit class no change; viability robust z-score 0.24; caspase robust z-score 3.18; inactive.
UBR4 (ubiquitin protein ligase E3 component n-recognin 4) showed viability hit class no change; caspase hit class no change; viability robust z-score -1.64; caspase robust z-score 1.03; inactive.
Against CDK3 (cyclin dependent kinase 3), the values are viability hit class no change; caspase hit class no change; viability robust z-score -0.09; caspase robust z-score 0.43; inactive.
With knock-down of FAM47B (family with sequence similarity 47 member B), the screen gave viability hit class no change; caspase hit class no change; viability robust z-score 0.45; caspase robust z-score -0.12; inactive.
After knock-down of CHIA (chitinase acidic) the results were viability hit class no change; caspase hit class no change; viability robust z-score -0.18; caspase robust z-score -0.14; inactive.
Depletion of MC2R (melanocortin 2 receptor) gave: viability hit class no change; caspase hit class no change; viability robust z-score 0; caspase robust z-score -0.12; inactive.
With knock-down of VCAM1 (vascular cell adhesion molecule 1), the record shows viability hit class no change; caspase hit class no change; viability robust z-score 0.52; caspase robust z-score -0.31; inactive.
For TSFM (Ts translation elongation factor, mitochondrial), the values are viability hit class no change; caspase hit class no change; viability robust z-score 0; caspase robust z-score -1.35; inactive.
For PYGL (glycogen phosphorylase L), the entry reads viability hit class no change; caspase hit class no change; viability robust z-score -0.14; caspase robust z-score -0.21; inactive.
Depletion of PIK3C2B came out at: viability hit class no change; caspase hit class no change; viability robust z-score -0.44; caspase robust z-score 0.57; inactive.
VCY (variable charge Y-linked) showed viability hit class no change; caspase hit class no change; viability robust z-score -0.12; caspase robust z-score 0.01; inactive.
COL4A3 (collagen type IV alpha 3 chain) scored viability hit class no change; caspase hit class no change; viability robust z-score 1.06; caspase robust z-score -0.87; inactive.
EFNB2 (ephrin B2) scored viability hit class no change; caspase hit class no change; viability robust z-score 0.54; caspase robust z-score -0.08; inactive.
OR4X2 (olfactory receptor family 4 subfamily X member 2) scored viability hit class no change; caspase hit class no change; viability robust z-score -0.08; caspase robust z-score 0.5; inactive.
For ELL3 (elongation factor for RNA polymerase II 3), the entry reads viability hit class no change; caspase hit class no change; viability robust z-score 0.57; caspase robust z-score -0.24; inactive.
Against LANCL3 (LanC like family member 3) the deposit lists viability hit class no change; caspase hit class no change; viability robust z-score 1.27; caspase robust z-score -0.32; inactive.
CCSER2 (coiled-coil serine rich protein 2) showed viability hit class no change; caspase hit class no change; viability robust z-score -0.76; caspase robust z-score -0.02; inactive.
Against AKT1S1 (AKT1 substrate 1), the entry reads viability hit class no change; caspase hit class no change; viability robust z-score 0.59; caspase robust z-score 0.16; inactive.
